In paper PMC11789017, “Preventing inappropriate signals pre- and post-ligand perception by a toggle switch mechanism of ERECTA” (Proceedings of the National Academy of Sciences of the …, 2025):
Residue numbers refer to the chain shown, from its start. No constants are given. Whether binding was seen depends on the method and setting. Binding seen in cells or lysates may run through a third protein. Some entries that bind do so weakly or less than the wild type. Where a sequence is shown, tags or fusion partners need not be part of it.

Experiments:
[1] = biological target: T1, ER-FLAG (ERpro::ER-FLAG, transgenic Arabidopsis) (Arabidopsis) (UniProt Q42371); test: co-IP; double transgenic Arabidopsis plants carrying ERpro::BKI1-YFP and FLAG-tagged ER variants; anti-FLAG beads, blots with anti-FLAG and anti-GFP; seedlings also treated with MEPF2 peptide (association decreased)
T1 sequence: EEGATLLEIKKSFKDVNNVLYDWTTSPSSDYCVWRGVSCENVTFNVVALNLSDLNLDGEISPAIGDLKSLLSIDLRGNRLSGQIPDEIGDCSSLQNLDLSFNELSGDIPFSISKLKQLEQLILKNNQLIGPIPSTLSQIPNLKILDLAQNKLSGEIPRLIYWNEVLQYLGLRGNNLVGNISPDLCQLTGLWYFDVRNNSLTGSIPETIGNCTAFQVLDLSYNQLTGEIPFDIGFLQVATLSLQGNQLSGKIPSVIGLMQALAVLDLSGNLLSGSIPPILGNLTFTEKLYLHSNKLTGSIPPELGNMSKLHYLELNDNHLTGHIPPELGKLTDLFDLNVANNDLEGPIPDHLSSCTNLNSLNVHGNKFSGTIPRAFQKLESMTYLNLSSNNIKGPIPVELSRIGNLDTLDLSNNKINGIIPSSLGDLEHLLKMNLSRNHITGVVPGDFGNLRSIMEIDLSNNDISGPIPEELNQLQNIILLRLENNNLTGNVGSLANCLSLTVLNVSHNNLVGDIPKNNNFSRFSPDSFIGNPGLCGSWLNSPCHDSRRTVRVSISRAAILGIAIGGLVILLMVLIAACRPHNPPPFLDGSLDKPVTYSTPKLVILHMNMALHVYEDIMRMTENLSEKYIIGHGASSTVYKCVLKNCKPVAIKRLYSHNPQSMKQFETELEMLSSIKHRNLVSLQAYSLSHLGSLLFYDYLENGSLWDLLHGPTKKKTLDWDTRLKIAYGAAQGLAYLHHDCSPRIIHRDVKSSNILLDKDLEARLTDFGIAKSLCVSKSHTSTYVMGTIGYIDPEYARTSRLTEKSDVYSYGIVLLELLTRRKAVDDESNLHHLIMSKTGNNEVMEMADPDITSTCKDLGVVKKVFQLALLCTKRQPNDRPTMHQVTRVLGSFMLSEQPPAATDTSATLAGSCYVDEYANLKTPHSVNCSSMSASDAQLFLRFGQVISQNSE

[2] = biological target: T2, ER_(T/S8A)-FLAG, phosphonull version (transgenic Arabidopsis) (Arabidopsis) (UniProt Q42371); test: as above
T2 sequence: T1 sequence with T923A, S926A, S930A, S931A, S933A, S935A, S948A, S951A

[3] = biological target: T3, PUB30-YFP (PUB30pro::PUB30-YFP, transgenic Arabidopsis) (UniProt Q058P4); test: co-IP; transgenic Arabidopsis plants carrying PUB30pro::PUB30-YFP and FLAG-tagged ER variants; anti-GFP beads, blots with anti-GFP and anti-FLAG
T3 sequence: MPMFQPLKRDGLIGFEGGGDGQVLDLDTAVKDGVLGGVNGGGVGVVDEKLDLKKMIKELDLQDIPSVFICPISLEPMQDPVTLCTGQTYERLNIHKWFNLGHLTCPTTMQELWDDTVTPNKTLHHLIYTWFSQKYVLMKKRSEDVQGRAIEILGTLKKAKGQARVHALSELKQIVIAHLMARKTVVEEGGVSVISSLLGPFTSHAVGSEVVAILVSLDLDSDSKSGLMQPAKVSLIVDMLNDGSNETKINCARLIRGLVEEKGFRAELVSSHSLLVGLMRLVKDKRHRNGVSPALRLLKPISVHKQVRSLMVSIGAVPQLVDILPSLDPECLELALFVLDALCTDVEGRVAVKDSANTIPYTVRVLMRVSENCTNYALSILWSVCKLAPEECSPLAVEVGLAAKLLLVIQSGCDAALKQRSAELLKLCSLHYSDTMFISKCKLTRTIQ

[4] = biological target: T4, ER-FLAG (Arabidopsis protoplasts) (Arabidopsis) (UniProt Q42371); test: co-IP; Arabidopsis protoplasts cotransfected with PUB30-MYC or PUB31-MYC and FLAG-tagged ER variants; 5 micromolar EPFL6 for 1 h; anti-FLAG beads, blots with anti-FLAG and anti-MYC
T4 sequence: T1 sequence

[5] = biological target: T5, ER_(T/S8A)-FLAG, phosphonull version (Arabidopsis protoplasts) (Arabidopsis) (UniProt Q42371); test: as above
T5 sequence: T1 sequence with T923A, S926A, S930A, S931A, S933A, S935A, S948A, S951A

[6] = biological target: T6, ER_(T/S8E)-FLAG, phosphomimetic version (Arabidopsis protoplasts) (Arabidopsis) (UniProt Q42371); test: as above
T6 sequence: T1 sequence with T923E, S926E, S930E, S931E, S933E, S935E, S948E, S951E

B1: GST-BKI1 (BRI1 KINASE INHIBITOR 1) (natural protein, UniProt Q9FMZ0 1-337, looked up)
chain: METNLQQVKNSSQTFSEKQNPKQEASPSPISSTCSSPSHDFSFTISLQPLSSSSKHISPTLRSPSKTTSSYQQTDPFAVDLSPADEIFFHGHLLPLHLLSHLPVSPRTSTGSYNDGFTLPVKDILPDQPTNNNNNTENAITNISTEAKDDNTEDKAEGEIRVKTKPIKSFSLFGLSKWRKGFESNEREQEQQQQKIKKPMSLDLSHAVKKYIRMLFQKRGNGTQFWNRRQTSSYSFSSSLMGPNGNSKTMINGSYNKRDLIRGRRGELFSAPASMRTSPTNSGHLRVSTAGLSSSSGSTSSSSSDSTMEELQAAIQAAIAHCKNSSAVDRDDKVKDS
notes: Tag end from the order of the printed name; source: recombinantly purified; not shown: GST, N-terminal, kept
Q: For B1, which binding [1] is on record?
A: binds

Q: And the binding [2]?
A: binds

B2: ER-FLAG (ERpro::ER-FLAG, transgenic Arabidopsis) (receptor, UniProt Q42371 25-976)
chain: T1 sequence
Q: For B2, which binding [3] is on record?
A: binds

B3: GST-PUB30 (U-box E3 ligase PUB30) (enzyme)
chain: T3 sequence
Q: With B3 as the binder, how does the binding [4] read?
A: binds

Q: And the binding [5]?
A: binds weakly

Q: And the binding [6]?
A: binds

B4: PUB31-MYC (Arabidopsis protoplasts) (enzyme, UniProt Q9FHN9 1-444)
chain: MPMFQPSKNGGFDGHILDLHSAVKDGVLGGGDGKFLVVVTDEKKKLDLKEMISELELPEIPSVFICPISLEPMQDPVTLCTGQTYERSNILKWFNIGHCTCPTTMQELWDDLVTPNKTLHQLIYTWFSQKYVLMKKRSEDVQGRAIEILGTLRKAKGKAKVHALSELKQVVMAHAIAKKTVVDEGGVFVISSLLSPFTSHAVGSEAIAILVNLELDSDSKAGLMQPARVSLMVDMLNDGSIETKINCARLIGRLVEEKGFRAELVSSHSLLVGLMRLVKDRRRRNGVSPALTLLKSVSVHKQVRNLLVRIGAVPQLVDVLPCLDVECLESALFVLDSLCLESEGRIALKDSVNTIPHTVRLLMKVSEKCTNYAISILWSVCKLASEECSSLAVEVGLAAKLLLVIQSGCDPALKQRSAELLKLCSLHYSDSMFISKCKLTRTIQ
Q: With B4 as the binder, how does the binding [4] read?
A: binds

Q: What about the binding [5] of the same binder?
A: binds weakly

Q: What about the binding [6] of the same binder?
A: binds
